## Library screen at single concentrations

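Assay of Toxoplasma gondii numbers, read through their beta-galactosidase reporter with a colour substrate. Compounds at 50 µM. Higher reads as fewer parasites (inferred from which compounds were picked for retests). About 18,000 compounds were tested under these conditions; 0.94% (about 170) showed 50% or more at least once.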

Values are the deposited “Percent Effect”, in %.
The controls that fix the scale are not given in the record; negative values are as filed.
This is an unselected part of the compounds tested.

Result for O=C1CCc2ccccc2N1Cc1ncccn1 was 0.3291%. For Cn1cc(C2CSCCN2Cc2cncs2)cn1 (stereo not shown) the result was -4.64%. O=C(CCC1CCNCC1)Nc1nc2c(s1)COCC2 read -9.507%. Result for Cn1cc(C(N)=O)c(NC(=O)c2ccc(Br)cc2)n1 was -15.42%. CSc1ccc(CNc2ccn(CCC(N)=O)n2)cc1 gave -4.331%. With O=C(Cc1ccc(O)c(Cl)c1)N[C@@H]1CS(=O)(=O)C[C@H]1O the screen gave -2.862%. For CN(CC(F)F)C(=O)C(N)Cc1ccccc1 (stereo not shown) the result was -1.929%.

For CCc1n[nH]c(SCC(=O)Nc2ccc(Br)cn2)n1 the result was -8.549%. CN1CCC(Oc2cc(N)ccn2)CC1 read -2.082%. Cc1ccsc1CN(C)C(=O)C(CN)c1ccccc1 (stereo not shown) read -6.582%. O=C(c1cccc2cn[nH]c12)N1CCCC1CO (stereo not shown) read 1.607%. NCC1CCN(Cc2cccc(F)c2)CC1 gave 13.9%. CCN1CCC(CC(=O)NCCn2cccc2)CC1 read -9.355%. CCCc1nnc(NCCc2ccnn2C)o1 gave 14.84%.

CCOc1cc(CN2CCC(N)CC2)ccc1O read -1.003%. Result for COC(=O)C1(CN)CC(c2ccccc2)C1 (stereo not shown) was -5.226%. With CCCN(C)C(=O)c1cc(CN2CCOCC2)on1 the screen gave -4.67%. Result for CN(CC(=O)NCc1ccco1)C(=O)c1ccncc1 was -1.879%. Result for Cc1noc(C)c1S(=O)(=O)NCCC1CCCO1 (stereo not shown) was -4.377%. CC(C)N(CC(=O)N1CCCC1)CC(C)(C)O gave -5.619%. For Cc1cnccc1NC(=O)NCCCn1ccnc1 the result was 3.177%.

CCSc1cncc(N2CCC(O)CC2)n1 read 13.4%. COc1ccc(OC)c(NC(=O)CCN2CCCC2)c1 read -2.801%. Result for COc1ccc(CCNC(=O)NCCCC(N)=O)cc1 was 98.98%. For Cn1cc(-c2csc(NC3CCOCC3)n2)cn1 the result was 6.273%. For CNC(=O)CCc1ccc2c(c1)OCCCO2 the result was -13.59%. With CCc1noc(CN2CCCC(CS(N)(=O)=O)C2)n1 (stereo not shown) the screen gave 1.397%. With NCc1ccccc1CN1CCCC1=O the screen gave -3.387%.

O=C(CNc1cccc2c1CCCC2)N1CCNC1=O gave -4.318%. Nc1ccnc(C2CCNCC2)n1 gave -7.699%. Result for O=C(NC1CC1)N1CCN(c2ncccc2Cl)CC1 was -2.465%. For Cn1ccnc1CN1CCC2(CC(=O)NC2=O)C1 (stereo not shown) the result was -5.882%. With COc1cnc(C#N)cn1 the screen gave -9.023%. Result for Cc1noc(C)c1CC(=O)N(C)C(C)c1ccncc1 (stereo not shown) was 10.1%. With CN(C)Cc1cccc(C(=O)N[C@@H]2CCOC[C@H]2O)c1 the screen gave -6.19%.

OC1CCOc2c(Cl)cccc21 (stereo not shown) gave -9.939%.

The last 2 entries again:

structure	percent effect
CN(C)Cc1cccc(C(=O)N[C@@H]2CCOC[C@H]2O)c1	-6.19
OC1CCOc2c(Cl)cccc21 (stereo not shown)	-9.939

From ChEMBL document CHEMBL3988442, “University of Dundee, Small-Polar-MMV Screening Library” (2021).